Article PMC6784428
These are yes or no findings as the source states them, for the method shown. Binding seen in cells or lysates may run through a third protein. Some results given as binding are weak or reduced against the parent protein; the word gives no strength.

Protein sequences, listed by entry. Tags and fused reporters are not part of them.
UniProt Q8JIY7: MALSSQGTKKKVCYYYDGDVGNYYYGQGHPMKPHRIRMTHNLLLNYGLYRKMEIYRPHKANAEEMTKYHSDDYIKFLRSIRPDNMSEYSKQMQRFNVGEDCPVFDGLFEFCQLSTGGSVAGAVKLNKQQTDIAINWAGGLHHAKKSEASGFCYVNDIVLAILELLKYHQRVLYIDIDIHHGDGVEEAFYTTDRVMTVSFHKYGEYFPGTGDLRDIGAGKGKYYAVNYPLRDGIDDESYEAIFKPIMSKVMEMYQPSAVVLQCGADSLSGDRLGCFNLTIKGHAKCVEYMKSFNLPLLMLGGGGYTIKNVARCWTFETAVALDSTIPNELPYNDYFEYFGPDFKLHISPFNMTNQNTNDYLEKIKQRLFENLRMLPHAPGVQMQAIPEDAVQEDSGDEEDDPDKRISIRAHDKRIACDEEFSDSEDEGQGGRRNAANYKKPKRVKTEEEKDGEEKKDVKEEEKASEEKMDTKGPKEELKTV

Key:
[1] = target: T1, Octamer-binding transcription factor 4 (Oct4) (zebrafish (endogenous in retina)) (UniProt Q90270); assay: condition: only with hdac1 mRNA overexpression in the retina; co-IP; retinal lysate at 15 hpi of injured retina transfected with hdac1 mRNA (hdac1 overexpression); Co-IP of Oct4 and Hdac1, Western blot probed with anti-Hdac1 antibody
T1 sequence: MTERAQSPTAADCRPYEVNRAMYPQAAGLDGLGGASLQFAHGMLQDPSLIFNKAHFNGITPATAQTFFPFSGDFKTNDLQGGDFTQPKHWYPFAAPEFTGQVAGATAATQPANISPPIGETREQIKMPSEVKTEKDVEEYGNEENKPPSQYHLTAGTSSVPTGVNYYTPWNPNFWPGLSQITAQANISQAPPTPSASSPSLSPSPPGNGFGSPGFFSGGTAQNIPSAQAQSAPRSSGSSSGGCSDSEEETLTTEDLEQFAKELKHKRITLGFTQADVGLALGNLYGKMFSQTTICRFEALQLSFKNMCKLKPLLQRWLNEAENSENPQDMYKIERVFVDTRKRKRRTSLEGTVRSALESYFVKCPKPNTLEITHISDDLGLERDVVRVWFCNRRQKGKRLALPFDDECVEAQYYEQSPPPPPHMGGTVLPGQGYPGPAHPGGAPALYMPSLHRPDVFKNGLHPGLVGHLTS

[2] = target: T1, Octamer-binding transcription factor 4 (Oct4) (zebrafish (endogenous in retina)); assay: co-IP; retinal lysate of injured adult zebrafish retina (16 hpi; also various time points post-injury and gfp mRNA-transfected control at 15 hpi); pull down with anti-Oct4 and anti-Hdac1 antibodies in separate experiments, Western blot for Hdac1 and Oct4

What does the source list for “histone deacetylase1 (Hdac1) (from UniProt Q8JIY7 1-480)”?
binding [1]: no binding; binding [2]: binds
